Data as given in PubChem BioAssay AID1259254 (NCATS, 2017).

Purpose: 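Gene knock-downs that lead to re-replication, shown by excess G2 DNA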 (primary screen)
Cells: human HCT116 colorectal cancer cells
Reagent: single siRNA against human genes
Time to read-out: 3 days
Measurement: 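Imaged Hoechst DNA stain sorts each cell into a cycle phase by DNA amount; per plate, G2 fraction set to 0% for non-targeting and 100% for GMNN siRNA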
Direction: G2 robust z-score and G2 cells, % of GMNN control: higher = more G2 cells, more excess DNA replication
Call rule: 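Active siRNAs have a G2 robust z of 5 or more median absolute deviations over the median, which in these data means about 38% or higher of GMNN control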
The deposit covers about 59,000 reagents; this is a part drawn at random. About 1,550 of them (2.6%) count as active. 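G2 share is only a proxy for re-replication; each gene was hit by three separate siRNAs, and active genes were retested.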 The numbers tell different reagents against one gene apart. Further read-outs or replicates are left out here. Reagent sequences are not shown. Not given: the amount of reagent.

no.	target	reagent	G2 robust z-score	G2 cells, % of GMNN control	Outcome
1	ISG20	1	0.156	4.07	inactive
2	ISG20	2	-0.927	-3.56	inactive
3	ISG20	3	4.06	31.5	inactive
4	KARS1	1	-0.834	-2.9	inactive
5	KARS1	2	-0.89	-3.3	inactive
6	KARS1	3	0.0567	3.37	inactive
7	OR11H1	1	-0.82	-2.8	inactive
8	OR11H1	2	0.768	8.37	inactive
9	OR11H1	3	-0.851	-3.02	inactive
10	EPHX3	1	5.55	42	active
11	EPHX3	2	2.35	19.5	inactive
12	EPHX3	3	-0.542	-0.844	inactive
13	ZDHHC3	1	-0.669	-1.74	inactive
14	ZDHHC3	2	-0.572	-1.06	inactive
15	ZDHHC3	3	-1.04	-4.32	inactive
16	SVBP	1	-0.729	-2.16	inactive
17	SVBP	2	-0.746	-2.28	inactive
18	SVBP	3	0.279	4.93	inactive
19	RBBP7	1	0.234	4.61	inactive
20	RBBP7	2	-0.0843	2.37	inactive
21	RBBP7	3	1.91	16.4	inactive
22	UROC1	1	-0.263	1.12	inactive
23	UROC1	2	0.0715	3.47	inactive
24	UROC1	3	-0.441	-0.133	inactive
25	TAF6L	1	-0.214	1.46	inactive
26	TAF6L	2	-0.878	-3.21	inactive
27	TAF6L	3	-1.05	-4.43	inactive
28	GSS	1	0.0159	3.08	inactive
29	GSS	2	3.08	24.6	inactive
30	GSS	3	0.597	7.17	inactive

Records listed so far called active, once more:
target	reagent	G2 robust z-score	G2 cells, % of GMNN control	Outcome
EPHX3	1	5.55	42	active
